{"source": "PubChem BioAssay AID504793 (Drosophila RNAi Screening Center, 2011)", "purpose": "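Genes required for cells to halt at G2/M after double-strand DNA breaks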 (primary screen)", "cell system": "Drosophila S2R+ cells", "reagents": "long dsRNA against Drosophila genes, about 0.25 µg dsRNA per well", "time to read-out": "4 days of dsRNA, then 4 hours of drug before read-out", "challenge": "doxorubicin 0.5 µM for 4 hours to cause double-strand breaks, in cells also given a low, harmless dose of dsRNA against nbs to sensitise the assay", "measured": "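Mitotic index as the number of phospho-histone H3-positive cells in each well following doxorubicin, given as raw counts without normalisation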", "direction": "mitotic cells: higher = more cells in mitosis, weaker G2 arrest", "call rule": "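Genes are called active only when high mitotic counts were reproduced with independent dsRNAs and mitosis was checked for delay without damage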", "meaning of the calls": "active = confirmed in follow-up tests; inactive = not confirmed", "note": "The deposit covers about 23,000 reagents; below is a random part of those with a known target gene and a result. Of all reagents, 62 (0.27%) got an active call. 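Calls come from follow-up tests whose scores are not deposited, so confirmed genes may have low counts here; counts are not normalised per plate.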 Raw values are not corrected between plates."}
{"gene knocked down": "kibra", "amplicon": "DRSC14533", "mitotic cells, replicate 1": 9, "call": "inactive"}
{"gene knocked down": "kibra", "amplicon": "DRSC23283", "mitotic cells, replicate 1": 9, "call": "inactive"}
{"gene knocked down": "kibra", "amplicon": "DRSC29376", "mitotic cells, replicate 1": 5, "call": "inactive"}
{"gene knocked down": "CG13841", "amplicon": "DRSC14691", "mitotic cells, replicate 1": 7, "call": "inactive"}
{"gene knocked down": "CG13841", "amplicon": "DRSC26257", "mitotic cells, replicate 1": 8, "call": "inactive"}
{"gene knocked down": "CG13484", "amplicon": "DRSC10026", "mitotic cells, replicate 1": 5, "call": "inactive"}
{"gene knocked down": "CG13484", "amplicon": "DRSC26663", "mitotic cells, replicate 1": 4, "call": "inactive"}
{"gene knocked down": "Mhc", "amplicon": "DRSC03367", "mitotic cells, replicate 1": 1, "call": "inactive"}
{"gene knocked down": "Mhc", "amplicon": "DRSC25959", "mitotic cells, replicate 1": 3, "call": "inactive"}
{"gene knocked down": "CG13297", "amplicon": "DRSC09971", "mitotic cells, replicate 1": 5, "call": "inactive"}
{"gene knocked down": "nw", "amplicon": "DRSC06749", "mitotic cells, replicate 1": 8, "call": "inactive"}
{"gene knocked down": "nw", "amplicon": "DRSC06896", "mitotic cells, replicate 1": 8, "call": "inactive"}
{"gene knocked down": "nw", "amplicon": "DRSC25619", "mitotic cells, replicate 1": 4, "call": "inactive"}
{"gene knocked down": "CG45105", "amplicon": "DRSC15833", "mitotic cells, replicate 1": 5, "call": "inactive"}
{"gene knocked down": "CG45105", "amplicon": "DRSC25976", "mitotic cells, replicate 1": 5, "call": "inactive"}
{"gene knocked down": "CG32986", "amplicon": "DRSC02509", "mitotic cells, replicate 1": 5, "call": "inactive"}
{"gene knocked down": "CG15200", "amplicon": "DRSC19647", "mitotic cells, replicate 1": 9, "call": "inactive"}
{"gene knocked down": "CG15200", "amplicon": "DRSC24618", "mitotic cells, replicate 1": 2, "call": "inactive"}
{"gene knocked down": "CG9498", "amplicon": "DRSC03235", "mitotic cells, replicate 1": 8, "call": "inactive"}
{"gene knocked down": "CG31016", "amplicon": "DRSC21359", "mitotic cells, replicate 1": 14, "call": "inactive"}
{"gene knocked down": "CG31016", "amplicon": "DRSC27353", "mitotic cells, replicate 1": 4, "call": "inactive"}
{"gene knocked down": "Arpc3B", "amplicon": "DRSC20126", "mitotic cells, replicate 1": 16, "call": "inactive"}
{"gene knocked down": "Arpc3B", "amplicon": "DRSC28523", "mitotic cells, replicate 1": 1, "call": "inactive"}
{"gene knocked down": "Fbw5", "amplicon": "DRSC03146", "mitotic cells, replicate 1": 5, "call": "inactive"}
{"gene knocked down": "Fbw5", "amplicon": "DRSC29431", "mitotic cells, replicate 1": 5, "call": "inactive"}
{"gene knocked down": "CG12947", "amplicon": "DRSC14575", "mitotic cells, replicate 1": 9, "call": "inactive"}
{"gene knocked down": "Mkk4", "amplicon": "DRSC16739", "mitotic cells, replicate 1": 2, "call": "inactive"}
{"gene knocked down": "Mkk4", "amplicon": "DRSC29113", "mitotic cells, replicate 1": 4, "call": "inactive"}
{"gene knocked down": "CG8155", "amplicon": "DRSC07084", "mitotic cells, replicate 1": 6, "call": "inactive"}
{"gene knocked down": "CG8155", "amplicon": "DRSC21543", "mitotic cells, replicate 1": 17, "call": "inactive"}
{"gene knocked down": "CG8155", "amplicon": "DRSC28386", "mitotic cells, replicate 1": 2, "call": "inactive"}
{"gene knocked down": "CG34248", "amplicon": "DRSC09426", "mitotic cells, replicate 1": 1, "call": "inactive"}
{"gene knocked down": "CG32071", "amplicon": "DRSC22298", "mitotic cells, replicate 1": 6, "call": "inactive"}
{"gene knocked down": "CG32071", "amplicon": "DRSC25705", "mitotic cells, replicate 1": 13, "call": "inactive"}
